Experimental data reported in paper doi:10.1101/2024.06.06.597704.

Biological target: T1, ECT2^WT-mCherry (Arabidopsis thaliana) (UniProt Q9LJE5)
T1 sequence: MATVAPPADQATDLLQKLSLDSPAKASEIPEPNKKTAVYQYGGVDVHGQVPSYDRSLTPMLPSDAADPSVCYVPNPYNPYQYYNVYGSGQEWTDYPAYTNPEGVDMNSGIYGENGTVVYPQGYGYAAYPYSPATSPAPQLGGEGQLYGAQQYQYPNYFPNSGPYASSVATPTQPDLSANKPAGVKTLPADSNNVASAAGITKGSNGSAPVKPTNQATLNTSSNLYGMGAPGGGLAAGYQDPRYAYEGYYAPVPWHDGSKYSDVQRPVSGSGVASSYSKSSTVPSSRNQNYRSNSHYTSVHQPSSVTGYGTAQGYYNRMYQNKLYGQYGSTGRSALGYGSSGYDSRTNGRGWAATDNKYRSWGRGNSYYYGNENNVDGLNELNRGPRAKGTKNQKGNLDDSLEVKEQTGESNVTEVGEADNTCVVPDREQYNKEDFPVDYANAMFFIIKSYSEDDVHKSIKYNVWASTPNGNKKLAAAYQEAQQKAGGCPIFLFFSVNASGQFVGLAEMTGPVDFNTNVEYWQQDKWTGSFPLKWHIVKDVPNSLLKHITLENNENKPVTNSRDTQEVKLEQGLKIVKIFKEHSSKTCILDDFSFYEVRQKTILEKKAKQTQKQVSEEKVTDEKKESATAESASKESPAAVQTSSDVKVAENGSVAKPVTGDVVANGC
Assay: co-IP

binding: binds
Substance: ALBA1

These are yes or no findings as the source states them, for the method shown. Binding seen in cells or lysates may run through a third protein. Binding calls can cover weak binding; strength is not graded here.
